{"source": "PubChem BioAssay AID1347423", "about": "(Functional Genomics Laboratory (NCATS/FGL), 2020)", "note": "Out of some 52,000 sequences screened, about 210 (0.4%) were called active.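 How the source made its calls: active means gene whose silencing raises cell survival under the drug, median off-target-corrected z-score across its silencing RNAs 2 or more; inactive means the rest.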 The list shows a part of the results."}
{"test": "Resistance to Poly (ADP-Ribose) Polymerase inhibitor: Gene Identification via Genome-wide siRNA Screen", "conditions": "mouse BRCA2 R2336H ES cells, olaparib, CellTiter-Glo viability; hits give high values", "in_short": "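Mouse BRCA2 R2336H ES cells were reverse-transfected with siRNA (20 nM final), treated at 48 h with 500 nM olaparib, and read by CellTiter-Glo after 72 h. Scores: MAD-based z per siRNA, median per gene, seed off-target correction.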"}
{"sequence": "GGUAUGAGAUUACCUUCACTT against 1700037H04Rik", "z-score": "inactive: 0.702"}
{"sequence": "CCUUGGGACAAGCAUAUAUTT against Psg25", "z-score": "inactive: -2.48"}
{"sequence": "CCAUCUGAUUAAUGGCUUCTT against Tm7sf2", "z-score": "inactive: -1.81"}
{"sequence": "GGGACCACCUUGAACACUATT against 2310046K01Rik", "z-score": "inactive: -1.17"}
{"sequence": "GGCCAAAGGAUUUCUUAUCTT against Ndufa6", "z-score": "inactive: 0.941"}
{"sequence": "GGAACAAGGAUGCUCAUACTT against Ankmy1", "z-score": "inactive: -0.397"}
{"sequence": "GCUACUACCUGGCAGUUAGTT against Cyp4b1", "z-score": "inactive: 0.415"}
{"sequence": "GGAACACAGGUUAAGAAGGTT against Eif2b5", "z-score": "inactive: 1.28"}
{"sequence": "GGUCCUUCACAGUUAUGUGTT against 2810405F18Rik", "z-score": "inactive: -1.06"}
{"sequence": "GGUCUUAGAAGAUUUUUCUTT against Adam21", "z-score": "active: 2.43"}
{"sequence": "CGAUGAAUCAGUGAGGCUGTT against Wdr18", "z-score": "inactive: -1.94"}
{"sequence": "GCUUGGAUUGGUAACCUGUTT against Olfr167", "z-score": "inactive: -0.315"}
{"sequence": "GGCAGAAGUCAUCAACCAATT against Bcl2l12", "z-score": "inactive: -0.548"}
{"sequence": "GGCUGAGGCUCAUUACAAGTT against A930006D11", "z-score": "inactive: -1.46"}
{"sequence": "GGUGAUCAUGCUAACCUUUTT against Pcolce", "z-score": "inactive: 0.206"}
{"sequence": "GGCACUGUGUCAAGGUAAGTT against A230058J24Rik", "z-score": "inactive: -1.57"}
{"sequence": "GCGAAACAUAAACUGGGCATT against Fgd2", "z-score": "inactive: -0.489"}
{"sequence": "GCUGAGGACAUAUAAACUCTT against Nipsnap1", "z-score": "inactive: -0.264"}
{"sequence": "GCAUUUCGAAGUGCCCUUGTT against D830046C22Rik", "z-score": "inactive: -2.53"}
{"sequence": "GGCAUCAAAGAGAUCAUAGTT against Atp8a2", "z-score": "inactive: -2.9"}
{"sequence": "GGUGUCGGAUAUAGAAAAGTT against Pnma1", "z-score": "inactive: -0.145"}
{"sequence": "GGACAAGAACCUGAAGCGGTT against Cdk5r1", "z-score": "inactive: -0.584"}
{"sequence": "GCCUUCCUAAAGGAUUACUTT against Ndst1", "z-score": "inactive: 0.533"}
{"sequence": "GCCGAAUCACUUAAGUCCATT against Fbln1", "z-score": "inactive: 1.24"}
{"sequence": "GGUAUUCAAUACACAAUUCTT against Mlh1", "z-score": "inactive: -0.391"}
{"sequence": "GGACCUAAGGACUUGUUGATT against Chdh", "z-score": "inactive: 0.726"}
{"sequence": "GGCUUAAGGUGAGAUAUUCTT against Sp9", "z-score": "inactive: -0.226"}
{"sequence": "GGCCAGACAUGUUGAAGAATT against Ssna1", "z-score": "inactive: -1.49"}
{"sequence": "GUCAUGCAGCUCCUUUGGUTT against Olfr635", "z-score": "inactive: -1.58"}
{"sequence": "GGGACAGUACAGAGUGCUGTT against Hmx1", "z-score": "inactive: -1.4"}
{"sequence": "GGAAAAUGUAAACAAGUACTT against Xpo5", "z-score": "inactive: -1.78"}
{"sequence": "GGAAGAAAGAGAGGUGUGATT against Nxf2", "z-score": "inactive: -1.73"}
{"sequence": "GCCUGUUCUAGUGGUUCUUTT against 2300006N05Rik", "z-score": "inactive: -2.07"}
{"sequence": "GGACUCUGACAAUUUUAUCTT against Pet2", "z-score": "inactive: 0.165"}
{"sequence": "GCAAAACCCAACAACUCUGTT against Lig3", "z-score": "inactive: -2.41"}
{"sequence": "GCAAAAUGGUUCCUUUGGATT against Sec24c", "z-score": "inactive: -1.26"}
{"sequence": "GCUAUCGGCGUGAUUCAGATT against Fut7", "z-score": "inactive: 1.26"}
{"sequence": "GGUAAUGAGCAGAUGAAGCTT against Sgta", "z-score": "inactive: -1.54"}
{"sequence": "GGUUAUCACAGGUAAAUGATT against Sim1", "z-score": "inactive: -0.727"}
{"sequence": "CGUUAGCAUCAGGUCAAGUTT against Zfp251", "z-score": "inactive: 0.834"}
{"sequence": "GGCUGUGUUGUCGAUUUCCTT against E130310K16Rik", "z-score": "inactive: -0.421"}
{"sequence": "GGAAGUCUGCCUGUUCUUGTT against Galnt10", "z-score": "inactive: -0.0664"}
{"sequence": "GCUCUAUGGAUCCUUGGAGTT against A630056B21Rik", "z-score": "inactive: -2.44"}
{"sequence": "CGUUUGACCAAAACAGAAUTT against Fbxw10", "z-score": "inactive: 0.184"}
{"sequence": "GCAGGUUAGAGUCACUUGUTT against LOC330863", "z-score": "inactive: 0.185"}
{"sequence": "GCGGUUUGUCUUCAACAAGTT against Il1b", "z-score": "inactive: 1.21"}
{"sequence": "CCUUAUGGGUAGAAAACCUTT against Mtmr2", "z-score": "inactive: 2.16"}
{"sequence": "CCGUCCUUCUGAGAAAUAATT against Tfip11", "z-score": "inactive: -0.87"}
{"sequence": "CCUCUAGAUAGUGUUAGAGTT against Smarcd1", "z-score": "inactive: -0.383"}
{"sequence": "CCUACCUUCGAAUCUCAGUTT against Dusp15", "z-score": "inactive: 0.155"}
{"sequence": "GGUUGGAUUGGGAUUUGAATT against Vdac3", "z-score": "inactive: -1.35"}
{"sequence": "GCUCAGCUAUCAAAACUUUTT against 9130017C17Rik", "z-score": "inactive: 1.74"}
{"sequence": "GGAAGGCCCUAGAAAGGACTT against A130033B22", "z-score": "inactive: -0.00211"}
{"sequence": "CCUUUAUACCCAAUACCUATT against Sca2", "z-score": "inactive: 0.904"}
{"sequence": "GCCUAUACAUCGGACAAUCTT against Apcs", "z-score": "inactive: 0.426"}
{"sequence": "GGCAACUUUGAAGUCUUGATT against Dntt", "z-score": "inactive: -0.582"}
{"sequence": "GCCUCCUGAAUGAUGACAUTT against Klk24", "z-score": "inactive: -0.244"}
{"sequence": "GGAAUGUUCUGUCGCUAUGTT against Nrp1", "z-score": "inactive: 0.0552"}
{"sequence": "GCAGUUCUGGUUCUGUCUGTT against BC024322", "z-score": "inactive: -0.0177"}
{"sequence": "GCUCAGUUGUUUUUCAUUCTT against Olfr782", "z-score": "inactive: 0.211"}
{"sequence": "GAUGGUCCAGAGCGACUUCTT against Pou3f3", "z-score": "inactive: -0.0787"}
{"sequence": "GGAGCAAAGUCUAAUAGCATT against Ercc1", "z-score": "inactive: -0.0951"}
{"sequence": "GCCACUCAACAUUAAAUCCTT against Tbc1d8", "z-score": "inactive: 1.76"}
{"sequence": "GUGUGGUACUCAACCCACUTT against Gpr40", "z-score": "inactive: 0.157"}
{"sequence": "CCUCAAAGUGUUAGGAUGATT against Slc35e4", "z-score": "inactive: 0.719"}
{"sequence": "GGAAAUUCUAGUCAAAUGCTT against Sp7", "z-score": "inactive: -0.201"}
{"sequence": "GGCUCAGUCUCAGGUGUUCTT against A630077B13Rik", "z-score": "inactive: 0.66"}
{"sequence": "GGAUGGUCACGGAAGUUCUTT against AI451006", "z-score": "inactive: 0.192"}
{"sequence": "GGUUUUGACUCUGUGAUAUTT against Sh3kbp1", "z-score": "inactive: 0.827"}
{"sequence": "CGCUGAUGAACUCUUUUCUTT against Ces1", "z-score": "inactive: 0.4"}
{"sequence": "GCAGGCUAACCACAUUUGCTT against Zic4", "z-score": "inactive: 0.52"}
{"sequence": "GGGAGUCUAUGCUAUGGGUTT against 2810457M08Rik", "z-score": "inactive: 0.305"}
{"sequence": "GCUUGGUAGAGAUGUUAAATT against Ryr3", "z-score": "inactive: -0.81"}
{"sequence": "GGGUAGAAUCCAAGAAGCGTT against Hoxb3", "z-score": "inactive: -0.806"}
{"sequence": "GGACCAAAAACCACUGUUUTT against Olfr355", "z-score": "inactive: 1.59"}
{"sequence": "GGCUAUACCCUGAAAUAUUTT against Slitrk4", "z-score": "inactive: -0.0705"}
{"sequence": "GGAUCUGAAGGAAUACUUUTT against 2400010G15Rik", "z-score": "active: 2.14"}
{"sequence": "GGAUGUUGAAAUCAAUGGUTT against Cyp3a16", "z-score": "inactive: 1.07"}
{"sequence": "GGUCACUCAAAGAAUUAUGTT against Srr", "z-score": "inactive: -1.07"}
{"sequence": "GGCUGCUAGCUUAUAUAAGTT against Surb7", "z-score": "inactive: 1.46"}
{"sequence": "GGAAGAGAUCAUCCAGCUGTT against Mafg", "z-score": "inactive: 0.219"}
{"sequence": "GGCUUGAGGCCUUUCUCUATT against Zfpl1", "z-score": "inactive: 0.376"}
{"sequence": "GGAGGACAAUGAGGACGAUTT against Chrac1", "z-score": "inactive: -0.472"}
{"sequence": "GCCCAUAGUAAAUUUGUUATT against Zcchc12", "z-score": "inactive: -0.379"}
{"sequence": "GGACCUUUUAUCUGAAAUGTT against Papln", "z-score": "inactive: 0.934"}
{"sequence": "GACAAAAUGGGUUUUACCUTT against Olfr668", "z-score": "inactive: -1.24"}
{"sequence": "GGGAUGGUGGAGAGAAAGATT against 2700067E09Rik", "z-score": "inactive: -0.607"}
{"sequence": "CCUCAAGUACUGUAAUCACTT against Atf2", "z-score": "inactive: -0.235"}
{"sequence": "GGCUGAACUGAUCCUGUACTT against Kcnh3", "z-score": "inactive: -0.436"}
{"sequence": "GGGACAUUAAACUAUUUCATT against Chchd3", "z-score": "inactive: -0.0615"}
{"sequence": "GCACAACUCCUACAUGGUCTT against 4931419K03Rik", "z-score": "inactive: -0.599"}
{"sequence": "GCUACAGCCGAGAGAAAUGTT against D14Ertd226e", "z-score": "inactive: 2.92"}
{"sequence": "CGAUGGACGAGAAAUAUUUTT against 1700030K09Rik", "z-score": "inactive: -0.892"}
{"sequence": "GAGUUCAAGAAUGCUGUUUTT against Usp43", "z-score": "inactive: 3.32"}
{"sequence": "GGAUCAUGUUAAACAAAGATT against Ccne1", "z-score": "inactive: -0.291"}
{"sequence": "GGAGGAACAAUAAACUGUATT against Pet2", "z-score": "inactive: 0.364"}
{"sequence": "GGUCUUGACCACACGAUGUTT against BC025833", "z-score": "inactive: -0.000572"}
{"sequence": "CCUUAACCUCCACUUUAUATT against Sdc2", "z-score": "inactive: 0.0517"}
{"sequence": "GCCUUUCACUAUUGACAACTT against Aurkb", "z-score": "inactive: -0.463"}
{"sequence": "CUCACAAGUCAAAGCCUACTT against 6330583I20Rik", "z-score": "inactive: 0.0818"}
{"sequence": "GGAAAAGACGGGAGAUUUGTT against Mbldc1", "z-score": "inactive: 0.0178"}
{"sequence": "GGCAUGAUUGUUUUGAUCCTT against Olfr1500", "z-score": "inactive: -0.031"}
{"sequence": "GGACGAUCGAUCGUUAACUTT against Ier5", "z-score": "inactive: 1.3"}
{"sequence": "GCGUAUUACAGACAGUGACTT against Izumo1", "z-score": "inactive: 0.518"}
